Laboratory results from PubChem BioAssay AID248 (DTP/NCI, 2004).
The list does not hold the whole screen: it is rich in T/C values a quarter to a half above the control, in often repeated tests (any T/C) and in doses without a T/C. Other doses and runs of a compound stand elsewhere. T/C is the treated group as % of the vehicle group. Some doses have a count of surviving animals in place of a T/C: the source holds a T/C of zero for them, seemingly a mark for toxic or unscored doses. Some survivor counts are full or nearly so, which does not show that the dose was tolerated: the source hardly ever lists a survival T/C far under the control, and the zero likely stands for such cases as well. Survivors were counted at the toxicity check, usually on the fifth day, unless a day is given; later deaths do not show. Schedules are NCI's codes, taken here to give the interval after Q, in days (D) or hours (H), and the number of doses after X. Some entries hold several experiments; the results are listed from low to high. Some schedule codes hold Z or #, which are not explained here. For survival time, this PubChem deposit counts one and a half times the control or more as active, and values a quarter to a half above the control carry no call in these data; other NCI protocols may use other cut-offs. Some T/C values carry the count of animals alive at the toxicity check (mostly the fifth day); where none is given, no animal had died by that day.

Tested on: L1210 leukemia ip in BDF1 mice, survival T/C
Assay: NCI In Vivo Anticancer Drug Screen. Data for tumor model L1210 Leukemia (intraperitoneal) in B6D2F1 (BDF1) mice
Conditions: higher T/C = longer survival
[1] = T/C endpoint: mean survival time, dose: 20.0 mg/kg/injection, schedule: Q01DX009 (ip), vehicle: saline

For `N#[N+]c1cnc([O-])[nH]c1=O`, the survivor count (T/C endpoint: mean survival time, dose: 16.0 mg/kg/injection, schedule: Q## X002 (ip), vehicle: carboxymethylcellulose (CMC)) was 5 of 10, the T/C (T/C endpoint: mean survival time, dose: 16.0 mg/kg/injection, schedule: Q## X003 (ip), vehicle: carboxymethylcellulose (CMC)) was 146 % of control and the T/C (T/C endpoint: mean survival time, dose: 16.0 mg/kg/injection, schedule: Q## X008 (ip), vehicle: carboxymethylcellulose (CMC)) was 130 % of control. The T/C (T/C endpoint: mean survival time, dose: 16.0 mg/kg/injection, schedule: Q## X016 (ip), vehicle: carboxymethylcellulose (CMC)) was 129 % of control, the T/C (T/C endpoint: mean survival time, dose: 19.0 mg/kg/injection, schedule: Q01DX001 (ip), vehicle: alkali diluted with saline) was 148 % of control and the survivor count (T/C endpoint: mean survival time, dose: 20.0 mg/kg/injection, schedule: Q01DX005 (ip), vehicle: Klucel (hydroxypropylcellulose) (HPC)) was 4 of 6. For the same molecule, the T/C (T/C endpoint: mean survival time, dose: 20.0 mg/kg/injection, schedule: Q01DX005 (ip), vehicle: alkali diluted with saline) was 147 % of control, the survivor count (T/C endpoint: mean survival time, dose: 20.0 mg/kg/injection, schedule: Q01DX005 (ip), vehicle: saline) was 3 of 6 and the T/C [1] was 103 % of control. The survivor count [1] was 0 of 6 and 1 of 6, the survivor count (T/C endpoint: mean survival time, dose: 20.0 mg/kg/injection, schedule: Q01DX010 (ip), vehicle: saline) was 1 of 6 and 2 of 6 and the survivor count (T/C endpoint: mean survival time, dose: 20.0 mg/kg/injection, schedule: Q01DX Z (im), vehicle: saline) was 2 of 6. The survivor count (T/C endpoint: mean survival time, dose: 20.0 mg/kg/injection, schedule: Q01DX Z (ip), vehicle: saline) was 0 of 6, the survivor count (T/C endpoint: mean survival time, dose: 20.0 mg/kg/injection, schedule: Q01DX Z (sc), vehicle: steroid suspending solution) was 3 of 6 and the T/C (T/C endpoint: mean survival time, dose: 20.0 mg/kg/injection, schedule: Q04DX003 (ip), vehicle: Klucel (hydroxypropylcellulose) (HPC)) was 146 % of control. For the same molecule, the T/C (T/C endpoint: mean survival time, dose: 20.0 mg/kg/injection, schedule: Q04DX003 (ip), vehicle: alkali diluted with saline) was 141 % of control, the T/C (T/C endpoint: mean survival time, dose: 20.0 mg/kg/injection, schedule: Q04DX003 (ip), vehicle: saline) was 129 % of control and the survivor count (T/C endpoint: mean survival time, dose: 20.0 mg/kg/injection, schedule: Q#A X Z (ip), vehicle: methylcellulose (MC)) was 6 of 6. For the same molecule, the T/C (T/C endpoint: mean survival time, dose: 30.0 mg/kg/injection, schedule: Q01DX001 (ip), vehicle: alkali diluted with saline) was 134 % of control [5 of 6 alive], the survivor count (T/C endpoint: mean survival time, dose: 30.0 mg/kg/injection, schedule: Q01DX001 (ip), vehicle: saline) was 0 of 6 and the survivor count (T/C endpoint: mean survival time, dose: 30.0 mg/kg/injection, schedule: Q03DX Z (ip), vehicle: methylcellulose (MC)) was 2 of 6. The survivor count (T/C endpoint: mean survival time, dose: 32.0 mg/kg/injection, schedule: Q01DX001 (ip), vehicle: carboxymethylcellulose (CMC)) was 5 of 10, the survivor count (T/C endpoint: mean survival time, dose: 32.0 mg/kg/injection, schedule: Q01DX001 (sc), vehicle: carboxymethylcellulose (CMC)) was 2 of 10 and the survivor count (T/C endpoint: mean survival time, dose: 32.0 mg/kg/injection, schedule: Q01DX009 (ip), vehicle: carboxymethylcellulose (CMC)) was 0 of 10. The survivor count (T/C endpoint: mean survival time, dose: 32.0 mg/kg/injection, schedule: Q01DX009 (sc), vehicle: carboxymethylcellulose (CMC)) was 0 of 10, the survivor count (T/C endpoint: mean survival time, dose: 32.0 mg/kg/injection, schedule: Q## X002 (ip), vehicle: carboxymethylcellulose (CMC)) was 0 of 10 and the survivor count (T/C endpoint: mean survival time, dose: 32.0 mg/kg/injection, schedule: Q## X003 (ip), vehicle: carboxymethylcellulose (CMC)) was 0 of 10. For the same molecule, the T/C (T/C endpoint: mean survival time, dose: 32.0 mg/kg/injection, schedule: Q## X008 (ip), vehicle: carboxymethylcellulose (CMC)) was 136 % of control [9 of 10 alive], the T/C (T/C endpoint: mean survival time, dose: 32.0 mg/kg/injection, schedule: Q## X016 (ip), vehicle: carboxymethylcellulose (CMC)) was 130 % of control and the T/C (T/C endpoint: mean survival time, dose: 32.0 mg/kg/injection, schedule: Q## X024 (ip), vehicle: carboxymethylcellulose (CMC)) was 135 % of control. The survivor count (T/C endpoint: mean survival time, dose: 35.0 mg/kg/injection, schedule: Q07DX Z (ip), vehicle: methylcellulose (MC)) was 0 of 6, the survivor count (T/C endpoint: mean survival time, dose: 40.0 mg/kg/injection, schedule: Q04DX003 (ip), vehicle: Klucel (hydroxypropylcellulose) (HPC)) was 0 of 6 and the survivor count (T/C endpoint: mean survival time, dose: 40.0 mg/kg/injection, schedule: Q04DX003 (ip), vehicle: alkali diluted with saline) was 2 of 6. For the same molecule, the survivor count (T/C endpoint: mean survival time, dose: 40.0 mg/kg/injection, schedule: Q04DX003 (ip), vehicle: saline) was 0 of 6, 1 of 6, 2 of 6, the survivor count (T/C endpoint: mean survival time, dose: 60.0 mg/kg/injection, schedule: Q01DX001 (ip), vehicle: alkali diluted with saline) was 0 of 6 and the survivor count (T/C endpoint: mean survival time, dose: 60.0 mg/kg/injection, schedule: Q01DX001 (ip), vehicle: saline) was 0 of 6. For the same molecule, the survivor count (T/C endpoint: mean survival time, dose: 60.0 mg/kg/injection, schedule: Q03DX Z (ip), vehicle: methylcellulose (MC)) was 0 of 6, the survivor count (T/C endpoint: mean survival time, dose: 64.0 mg/kg/injection, schedule: Q01DX001 (ip), vehicle: carboxymethylcellulose (CMC)) was 0 of 10 and the survivor count (T/C endpoint: mean survival time, dose: 64.0 mg/kg/injection, schedule: Q01DX001 (sc), vehicle: carboxymethylcellulose (CMC)) was 0 of 10. The survivor count (T/C endpoint: mean survival time, dose: 64.0 mg/kg/injection, schedule: Q01DX Z (oral), vehicle: methylcellulose (MC)) was 2 of 7, the survivor count (T/C endpoint: mean survival time, dose: 64.0 mg/kg/injection, schedule: Q## X002 (ip), vehicle: carboxymethylcellulose (CMC)) was 0 of 10 and the survivor count (T/C endpoint: mean survival time, dose: 64.0 mg/kg/injection, schedule: Q## X003 (ip), vehicle: carboxymethylcellulose (CMC)) was 0 of 10. The survivor count (T/C endpoint: mean survival time, dose: 64.0 mg/kg/injection, schedule: Q## X008 (ip), vehicle: carboxymethylcellulose (CMC)) was 5 of 10, the survivor count (T/C endpoint: mean survival time, dose: 64.0 mg/kg/injection, schedule: Q## X016 (ip), vehicle: carboxymethylcellulose (CMC)) was 2 of 10 and the survivor count (T/C endpoint: mean survival time, dose: 64.0 mg/kg/injection, schedule: Q## X024 (ip), vehicle: carboxymethylcellulose (CMC)) was 6 of 10. The survivor count (T/C endpoint: mean survival time, dose: 70.0 mg/kg/injection, schedule: Q07DX Z (ip), vehicle: methylcellulose (MC)) was 0 of 6, the survivor count (T/C endpoint: mean survival time, dose: 80.0 mg/kg/injection, schedule: Q01DX006 (iv), vehicle: saline) was 0 of 6 and the T/C (T/C endpoint: mean survival time, dose: 80.0 mg/kg/injection, schedule: Q01DX Z (oral), vehicle: saline) was 125 % of control. For the same molecule, the survivor count (T/C endpoint: mean survival time, dose: 120.0 mg/kg/injection, schedule: Q01DX001 (ip), vehicle: alkali diluted with saline) was 0 of 6, the survivor count (T/C endpoint: mean survival time, dose: 120.0 mg/kg/injection, schedule: Q01DX001 (ip), vehicle: saline) was 0 of 6 and 1 of 6 and the survivor count (T/C endpoint: mean survival time, dose: 120.0 mg/kg/injection, schedule: Q03DX Z (ip), vehicle: methylcellulose (MC)) was 0 of 6. The survivor count (T/C endpoint: mean survival time, dose: 140.0 mg/kg/injection, schedule: Q07DX Z (ip), vehicle: methylcellulose (MC)) was 0 of 6, the survivor count (T/C endpoint: mean survival time, dose: 160.0 mg/kg/injection, schedule: Q01DX009 (oral), vehicle: carboxymethylcellulose (CMC)) was 6 of 10 and the survivor count (T/C endpoint: mean survival time, dose: 160.0 mg/kg/injection, schedule: Q01DX Z (oral), vehicle: saline) was 2 of 6. For the same molecule, the survivor count (T/C endpoint: mean survival time, dose: 280.0 mg/kg/injection, schedule: Q07DX Z (ip), vehicle: methylcellulose (MC)) was 0 of 6, the survivor count (T/C endpoint: mean survival time, dose: 320.0 mg/kg/injection, schedule: Q01DX Z (oral), vehicle: saline) was 0 of 6 and the survivor count (T/C endpoint: mean survival time, dose: 640.0 mg/kg/injection, schedule: Q01DX001 (oral), vehicle: carboxymethylcellulose (CMC)) was 0 of 10. The T/C (T/C endpoint: median survival time, dose: 2.5 mg/kg/injection, schedule: Q01DX009 (ip), vehicle: saline) was 127 and 142 % of control [5 of 6 alive], the T/C (T/C endpoint: median survival time, dose: 5.0 mg/kg/injection, schedule: Q01DX009 (ip), vehicle: saline) was 144 % of control and the survivor count (T/C endpoint: median survival time, dose: 20.0 mg/kg/injection, schedule: Q01DX009 (ip), vehicle: saline) was 3 of 6 and 4 of 6.
